Laboratory results reported in paper PMC4606454.

Target: Flag-Myc4-TrAP (Tomato Golden Mosaic Virus (TGMV))
Experiment: affinity purification with mass spectrometry; two-step immunoprecipitation (anti-FLAG M2 beads, FLAG peptide elution, anti-c-Myc agarose) from Arabidopsis plants expressing XVE-Flag-Myc4-TrAP induced with beta-estradiol; Col-0 as control

B1: endogenous KYP/SUVH4 (enzyme, UniProt Q8GZB6 1-624)
chain: MAGKRKRANAPDQTERRSSVRVQKVRQKALDEKARLVQERVKLLSDRKSEICVDDTELHEKEEENVDGSPKRRSPPKLTAMQKGKQKLSVSLNGKDVNLEPHLKVTKCLRLFNKQYLLCVQAKLSRPDLKGVTEMIKAKAILYPRKIIGDLPGIDVGHRFFSRAEMCAVGFHNHWLNGIDYMSMEYEKEYSNYKLPLAVSIVMSGQYEDDLDNADTVTYTGQGGHNLTGNKRQIKDQLLERGNLALKHCCEYNVPVRVTRGHNCKSSYTKRVYTYDGLYKVEKFWAQKGVSGFTVYKYRLKRLEGQPELTTDQVNFVAGRIPTSTSEIEGLVCEDISGGLEFKGIPATNRVDDSPVSPTSGFTYIKSLIIEPNVIIPKSSTGCNCRGSCTDSKKCACAKLNGGNFPYVDLNDGRLIESRDVVFECGPHCGCGPKCVNRTSQKRLRFNLEVFRSAKKGWAVRSWEYIPAGSPVCEYIGVVRRTADVDTISDNEYIFEIDCQQTMQGLGGRQRRLRDVAVPMNNGVSQSSEDENAPEFCIDAGSTGNFARFINHSCEPNLFVQCVLSSHQDIRLARVVLFAADNISPMQELTYDYGYALDSVHGPDGKVKQLACYCGALNCRKRLY
For B1, which binding is on record?
The binding was “binds”.

These are yes or no findings as the source states them, for the method shown. Binding seen in cells or lysates may run through a third protein. Here binding means that the protein was enriched with, or labelled near, the bait; the list need not be complete.
